# According to PMC5964322:
# Chains of the proteins cited; added tags and fusions are not shown.
# UniProt Q15032: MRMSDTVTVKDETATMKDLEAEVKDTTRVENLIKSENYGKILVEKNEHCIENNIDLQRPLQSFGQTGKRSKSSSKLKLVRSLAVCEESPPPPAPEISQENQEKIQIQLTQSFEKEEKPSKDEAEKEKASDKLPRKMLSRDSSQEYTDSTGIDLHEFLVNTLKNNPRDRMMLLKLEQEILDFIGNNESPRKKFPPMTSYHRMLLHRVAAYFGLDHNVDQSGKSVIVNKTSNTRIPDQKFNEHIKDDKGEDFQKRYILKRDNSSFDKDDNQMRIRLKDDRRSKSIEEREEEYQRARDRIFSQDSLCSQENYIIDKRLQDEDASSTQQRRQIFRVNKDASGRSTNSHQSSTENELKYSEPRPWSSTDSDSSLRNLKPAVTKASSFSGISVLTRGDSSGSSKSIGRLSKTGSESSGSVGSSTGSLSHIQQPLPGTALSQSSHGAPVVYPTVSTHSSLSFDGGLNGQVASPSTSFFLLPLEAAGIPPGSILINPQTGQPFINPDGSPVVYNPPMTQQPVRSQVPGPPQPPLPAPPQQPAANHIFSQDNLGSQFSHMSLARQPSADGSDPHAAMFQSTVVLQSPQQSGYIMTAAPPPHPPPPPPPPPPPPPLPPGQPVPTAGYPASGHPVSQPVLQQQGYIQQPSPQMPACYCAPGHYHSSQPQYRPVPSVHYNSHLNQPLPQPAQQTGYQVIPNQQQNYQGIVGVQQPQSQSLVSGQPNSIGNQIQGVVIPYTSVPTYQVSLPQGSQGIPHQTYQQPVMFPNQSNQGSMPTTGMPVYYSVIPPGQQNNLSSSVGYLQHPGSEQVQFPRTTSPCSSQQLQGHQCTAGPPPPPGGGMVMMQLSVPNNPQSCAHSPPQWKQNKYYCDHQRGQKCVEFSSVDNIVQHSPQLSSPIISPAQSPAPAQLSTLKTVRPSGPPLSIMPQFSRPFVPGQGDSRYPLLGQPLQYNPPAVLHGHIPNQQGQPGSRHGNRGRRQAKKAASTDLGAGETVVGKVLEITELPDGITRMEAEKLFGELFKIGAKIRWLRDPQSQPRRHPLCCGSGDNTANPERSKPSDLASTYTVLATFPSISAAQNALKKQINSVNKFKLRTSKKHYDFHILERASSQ
# UniProt P63104: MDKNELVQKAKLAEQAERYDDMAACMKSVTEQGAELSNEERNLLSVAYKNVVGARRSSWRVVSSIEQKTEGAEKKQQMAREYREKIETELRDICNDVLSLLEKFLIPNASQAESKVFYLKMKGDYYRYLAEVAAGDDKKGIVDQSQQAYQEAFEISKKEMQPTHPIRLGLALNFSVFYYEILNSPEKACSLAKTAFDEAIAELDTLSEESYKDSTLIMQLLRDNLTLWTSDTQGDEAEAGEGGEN
# Target: T1, FLAG-tagged ARPP21 (mouse), expressed in HEK-293T cells (mouse) (UniProt Q9DCB4)
# T1 sequence: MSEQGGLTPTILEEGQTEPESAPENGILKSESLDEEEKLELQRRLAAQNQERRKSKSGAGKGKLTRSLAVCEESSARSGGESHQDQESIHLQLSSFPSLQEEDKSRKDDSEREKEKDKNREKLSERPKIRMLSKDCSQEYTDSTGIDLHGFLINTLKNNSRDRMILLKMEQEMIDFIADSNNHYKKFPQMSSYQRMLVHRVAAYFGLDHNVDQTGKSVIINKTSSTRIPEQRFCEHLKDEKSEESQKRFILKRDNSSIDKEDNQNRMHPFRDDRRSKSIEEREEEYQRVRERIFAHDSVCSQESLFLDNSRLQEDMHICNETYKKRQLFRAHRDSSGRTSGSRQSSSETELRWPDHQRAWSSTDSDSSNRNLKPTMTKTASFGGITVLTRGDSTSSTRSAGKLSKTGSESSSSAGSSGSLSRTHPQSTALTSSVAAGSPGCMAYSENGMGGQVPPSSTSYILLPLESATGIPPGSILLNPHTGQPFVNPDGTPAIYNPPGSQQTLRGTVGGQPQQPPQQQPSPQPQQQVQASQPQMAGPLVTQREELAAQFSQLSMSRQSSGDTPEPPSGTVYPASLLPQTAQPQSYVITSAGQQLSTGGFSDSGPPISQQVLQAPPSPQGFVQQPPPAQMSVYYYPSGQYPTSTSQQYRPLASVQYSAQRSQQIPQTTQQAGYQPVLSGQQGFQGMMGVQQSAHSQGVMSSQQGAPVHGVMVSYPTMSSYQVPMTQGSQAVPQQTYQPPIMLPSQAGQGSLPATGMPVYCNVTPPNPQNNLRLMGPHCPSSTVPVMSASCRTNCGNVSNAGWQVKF
# Experiment: affinity purification with mass spectrometry; FLAG-tagged mouse ARPP21 or R3HDM1 immunoprecipitated from transfected HEK-293T lysates after RNase digestion; interactors identified by LC-MS/MS; compared with mock-transfected cells
row,binding,Substance
1,binds,"eIF4G, endogenous HEK-293T protein detected by MS (human (endogenous in HEK-293T))"
2,binds,"R3HDM1, endogenous HEK-293T protein (from UniProt Q15032 1-1099)"
3,binds,"14-3-3-ζ, endogenous HEK-293T protein detected by MS (from UniProt P63104 1-245)"
4,binds,"eIF4A, endogenous HEK-293T protein detected by MS (human (endogenous in HEK-293T))"

# These are yes or no findings as the source states them, for the method shown. Binding seen in cells or lysates may run through a third protein. A yes stands for co-enrichment or nearness to the bait. Other partners may have been found. Tags and fused reporters may be left off the sequences shown.
